{"source": "patent US20060240014A1", "about": "“Methods and compounds for the treatment of vascular stenosis” (Beth Israel Deaconess Medical Center, priority 2003, published 2006)", "key": {"[1]": {"system": "human aortic vascular smooth muscle cells (HASOM cells)", "test": "hPDGF-BB induced migration of human aortic vascular smooth muscle cells (Boyden chamber)", "assay_type": "cell-based", "conditions": "20 ng/ml hPDGF-BB, 48 hours drug pre-incubation, 12 hours migration, dose dependent (FIG. 1)", "procedure": "Drug concentrations for G are in ng/mL and for R are in pg/mL. The first lane has no PDGF added and the first two lanes have no drug compounds added. The results are expressed as means±S.E.M. of triplicate readings.\nIn vitro studies were performed to examine the dose response of Gleevec and rapamycin on human aortic vascular smooth muscle cells (HASOM cells). Cell migration was measured using a 24-well Boyden-chamber (Corning Costar Corp, Cambridge, Mass.). […] These membranes were coated with 0.1% gelatin for eight hours, then aspirated and allowed to dry for two hours. The cells were allowed to grow to 70% confluence and then treated with media containing 1% fetal calf serum and drug compounds (Gleevec alone, rapamycin alone and Gleevec and rapamycin together at the concentrations indicated in FIG. 1) for 48 hours prior to the migration assay. […] The cells were harvested in 0.05% trypsin, resuspended in M-199 media, and seeded on the coated membrane at a concentration of 4000 cells per well with Gleevec and/or rapamycin. The M-199 media containing 0.5% BSA and 20 ng/ml human PDGF-B (hPDGF-BB) was placed in the bottom Boyden chamber. Cells were incubated in 5% CO2 at 37° C. for 12 hours and the cells lying on the upper surface of the membrane were scraped. […] Cell migration was quantified by counting the cells in five random high-power fields on the lower surface of the membrane. […]"}, "[2]": {"system": "human aortic vascular smooth muscle cells (HASOM cells)", "conditions": "48 hour incubation not used (Poon et al.); cited from earlier work"}, "[3]": {"conditions": "cited from earlier work"}}, "note": "At least one compound was matched to its structure with a doubt left."}
{"smiles": "CO[C@H]1C[C@@H]2CC[C@@H](C)[C@@](O)(O2)C(=O)C(=O)N2CCCC[C@H]2C(=O)O[C@H]([C@H](C)C[C@@H]2CC[C@@H](O)[C@H](OC)C2)CC(=O)[C@H](C)/C=C(\\C)[C@@H](O)[C@@H](OC)C(=O)[C@H](C)C[C@H](C)/C=C/C=C/C=C/1C", "note": "[rapamycin]", "values": [{"measurement": "inhibition of PDGF induced migration of HASOM cells", "setting": "[1]", "result": "potently inhibited"}, {"measurement": "block of migration without the 48 hour incubation", "setting": "[2]", "result": "does not block migration"}, {"measurement": "concentrations that typically cause immunosuppression", "setting": "[3]", "result": "5 to 15", "unit": "ng/mL"}]}
